A weaker result is weaker than the reference pair of the same experiment. Protein sequences can lack the tags named with them.

The series addresses T1, ICE1 (Arabidopsis thaliana) (UniProt Q9LSE2).
T1 sequence (limits assumed): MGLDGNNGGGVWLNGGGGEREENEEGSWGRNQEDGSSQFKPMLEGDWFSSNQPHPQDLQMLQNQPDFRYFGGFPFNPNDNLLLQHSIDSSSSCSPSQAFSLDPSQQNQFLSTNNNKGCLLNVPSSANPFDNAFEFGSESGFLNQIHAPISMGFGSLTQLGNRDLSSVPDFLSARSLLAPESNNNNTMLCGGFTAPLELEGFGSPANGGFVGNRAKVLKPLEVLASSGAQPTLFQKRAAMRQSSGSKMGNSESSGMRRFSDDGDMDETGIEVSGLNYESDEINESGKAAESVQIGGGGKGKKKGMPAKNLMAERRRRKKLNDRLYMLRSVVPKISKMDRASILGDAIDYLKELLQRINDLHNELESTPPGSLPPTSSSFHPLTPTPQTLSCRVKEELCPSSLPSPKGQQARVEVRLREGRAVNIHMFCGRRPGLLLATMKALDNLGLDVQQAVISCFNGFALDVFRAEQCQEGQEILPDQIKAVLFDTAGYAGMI
Description: competition with a labelled probe. Particulars: mutated competitor affected complex less than wild type; 50-250 fold excess; purified recombinant protein; protein details: His tag N-terminal (pET14b, E. coli BL21 DE3); variant of MYC-2.

“CTCTGGAACCAGTGCAGATC (double strand) [MYC-2 (M)]”: the binding result is “binds more weakly”.

The values above are taken from US20030233681, “ICE1, a regulator of cold induced transcriptome and freezing tolerance in plants” (Arizona Bd of Regents/Behalf of Univ. of Arizona, published 2003).
